Measured values taken from PubChem BioAssay AID2052 (NMMLSC, 2009).
The other results are listed elsewhere or left out.

Assay: modulators of CD8 T cell-vesicle binding, primary screen, mouse 2C CD8+ T cells, flow cytometry (AID 2052);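 also: binding gate set so that unloaded-vesicle control wells show 10% double positive cells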
Details: 2C CD8+ T cell-vesicle binding, measured here: CD8+ vesicle-bound cell fraction, at 7 µM, stronger effect = lower value
Summary of the method: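 Benchmarks: naked versus QL9-loaded vesicles / Assay system: purified 2C TCR transgenic mouse naive CD8+ T cells / Technique: high-throughput flow cytometry with anti-B7-1 and anti-CD8 staining / Timing: Cell–vesicle co-incubation 1.5 h at 37 °C, staining 20 min on ice / Read-out: percent CD8+ FL2 mean versus row control / Probe or stimulus: QL9-loaded Drosophila micro-vesicles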

Row | Structure (SMILES) | double positive events [%]
1 | CCc1cc(C(=O)NCC2(N3CCCCC3)CCCCC2)sc1C | 27.9
2 | O=C(OC1CN2CCC1CC2)C1c2ccccc2C=Cc2ccccc21 (centres undefined) | 20.7
3 | N/C(=N\O)c1c(N)no[n+]1[O-] | 33.9
4 | CCOC(=O)N1CCC(Nc2ccc(C)cc2)CC1 | 59.3
5 | COc1ccc(C(=O)NCC2(N3CCOCC3)CCCCC2)cc1OC | 54
6 | O=C(NCC1(N2CCOCC2)CCCCC1)c1cc(Br)ccc1Cl | 39.2
7 | COc1cc(C(=O)NCC2(N3CCOCC3)CCCCC2)cc(OC)c1C | 41.4
8 | c1ccc(CN2CCC(Nc3ccccc3)CC2)cc1 | 49.6
9 | CCCN1CCC(Nc2cc(OC)cc(OC)c2)CC1 | 60.7
10 | CN(C)C1(CNC(=O)c2cccc(C#N)c2)CCCCC1 | 60.7
11 | CC(C)(C)OC(=O)N1CCC(N(C(=O)c2ccccc2)c2ccc(Cl)cc2)CC1 | 56
12 | N#Cc1ccc(C(=O)NCC2(N3CCCCC3)CCCCC2)cc1 | 55.9
13 | O=C(NCC1(N2CCCCC2)CCCCC1)c1ccco1 | 46
14 | CN(C)c1ccc(C(=O)NCC2(N3CCCCC3)CCCCC2)cc1 | 45.9
15 | CCN1CCC(Nc2cccc(F)c2)CC1 | 51.6
16 | Cc1ccc(C(=O)NCC2(N3CCCCC3)CCCCC2)o1 | 21.8
17 | Fc1ccccc1NC1CCN(Cc2ccccc2)CC1 | 30.6
18 | COc1cc(OC)cc(C(=O)NCC2(N3CCCCC3)CCCCC2)c1 | 38.3
19 | CCCOc1ccc(C)cc1CN(CCCl)CCCl | 34.2
20 | CN1CCC(Nc2ccc(Cl)cc2)CC1 | 57.8
21 | CCC(CO)(C(=O)OC1CN2CCC1CC2)c1ccccc1 (centres undefined) | 12
22 | COc1cc(OC)cc(C(=O)NCC2(N3CCOCC3)CCCCC2)c1 | 32

Row | Structure (SMILES) | double positive events [%]
23 | COc1cccc(C(=O)N(c2cc(C)cc(C)c2)C2CCN(C(=O)OC(C)(C)C)CC2)c1 | 20.1
24 | CCCOc1ccc(C(=O)NCC2(N(C)C)CCCCC2)cc1 | 9.5
25 | CC(C)(C)OC(=O)N1CCC(Nc2ccccc2)CC1 | 23
26 | O=C(O)C1(Nc2ccccc2)CCN(Cc2ccccc2)CC1 | 43.5
27 | CCOc1ncccc1C(=O)NCC1(N2CCOCC2)CCCCC1 | 32.1
28 | CN1CCC(Nc2ccc(F)c(Cl)c2)CC1 | 53.5
29 | CCOC(=O)N1CCC(Nc2ccc(OC)cc2)CC1 | 45.7
30 | N#CC1(Nc2ccccc2)CCN(Cc2ccccc2)CC1 | 45.4
31 | O=C(NCC1(N2CCCCC2)CCCCC1)c1ccc(Cl)s1 | 39.8
32 | O=C(OC1CN2CCC1CC2)C1c2ccccc2Oc2ccccc21 (centres undefined) | 43.9
33 | COc1ccc(Cl)cc1C(=O)NCC1(N2CCOCC2)CCCCC1 | 43.9
34 | O=C(NCC1(N2CCOCC2)CCCCC1)c1cc2ccccc2o1 | 17.8
35 | O=C(NCC1(N2CCCCC2)CCCCC1)c1ccc(Cl)nc1 | 21.7
36 | Cc1cc(C)cc(N(C(=O)c2ccccc2)C2CCN(C(=O)OC(C)(C)C)CC2)c1 | 17.1
37 | CSc1ccccc1C(=O)NCC1(N2CCCCC2)CCCCC1 | 20.5
38 | O=C(NCC1(N2CCCCC2)CCCCC1)c1ccc(=O)[nH]c1 | 10.8
39 | O=C(NCC1(N2CCCCC2)CCCCC1)c1cccs1 | 39.9
40 | COc1ccc(C(=O)NCC2(N3CCCCC3)CCCCC2)cc1 | 43.6
41 | COc1ccc(C(=O)NCC2(N3CCCCC3)CCCCC2)c(OC)c1OC | 31
42 | CC(C)(C)OC(=O)N1CCC(N(C(=O)c2ccccc2)c2ccc(F)cc2)CC1 | 33.9
43 | CCOC(=O)N1CCC(Nc2cccc(C)c2)CC1 | 49.1
44 | COc1cc(C(=O)NCC2(N(C)C)CCCCC2)ccc1OC(F)F | 36.7

Row | Structure (SMILES) | double positive events [%]
45 | Cc1ccc(OCC(C)C)c(CN(CCCl)CCCl)c1 | 49.4
46 | O=C(NCC1(N2CCCCC2)CCCCC1)c1ccc(F)cc1 | 30.3
47 | COc1ccc(NC2CCN(CCc3ccccc3)CC2)c(OC)c1 | 18.7
48 | CCOC(=O)N1CCC(Nc2ccc(F)cc2)CC1 | 21.2
49 | CN1CCN(CCOC(=O)C(O)(c2ccccc2)c2ccccc2)CC1 | 35
50 | COc1ccc(NC2CCN(C(=O)OC(C)(C)C)CC2)cc1 | 36.4
51 | COc1cc(C(=O)NCC2(N3CCCCC3)CCCCC2)ccc1OC(F)F | 16
52 | O=C(NCC1(N2CCOCC2)CCCCC1)c1cc(=O)[nH]c2ccccc12 | 45.4
53 | O=C(NCC1(N2CCCCC2)CCCCC1)c1cccc(C(F)(F)F)c1 | 45.2
54 | O=C(NCC1(N2CCCCC2)CCCCC1)c1cccc([N+](=O)[O-])c1 | 44.9
55 | CCN1CCC(Nc2ccc(Cl)cc2)CC1 | 48.1
56 | N#CC1(Nc2ccccc2)CCN(CCc2ccccc2)CC1 | 18.6
57 | O=C(NCC1(N2CCCCC2)CCCCC1)c1ccc(OC(F)F)cc1 | 49.8
58 | CCCOc1ccc(C(=O)NCC2(N(C)C)CCCCC2)cc1OC | 15.7
59 | CN1CCC(Nc2cccc(F)c2)CC1 | 48.8
60 | O=C(NCC1(N2CCCCC2)CCCCC1)c1cncc(Br)c1 | 27.5
61 | COc1cc(OC)c(C(=O)NCC2(N(C)C)CCCCC2)cc1OC | 17.3
62 | O=C(NCC1(N2CCOCC2)CCCCC1)c1cc(F)c(F)cc1Cl | 34.9
63 | CN(C)c1cccc(C(=O)NCC2(N3CCCCC3)CCCCC2)c1 | 35.9
64 | CC(C)c1ccc(NC2CCN(C(=O)OC(C)(C)C)CC2)cc1 | 4.8
